# Measurements published in EP0555351B1, “OXYSULFONYL CARBAMATES” (WARNER-LAMBERT COMPANY, priority 1990, dated 1992).
# At least one compound was matched to its structure with a doubt left.
# Target: acyl-CoA: cholesterol acyltransferase (ACAT)
# Assay: in vitro ACAT inhibition test (IAI): formation of radiolabeled cholesterol oleate from radiolabeled oleic acid in intestinal microsomes
# Type: biochemical
# Details: tissue preparation containing rabbit intestinal microsomes; concentration required to inhibit the activity of the enzyme by 50%; read-out: IAI IC₅₀
# Method: The ability of representative compounds of the present invention to inhibit ACAT was measured using an in vitro test more fully described in F. J. Field and R. G. Salone, Biochemica et Biophysica 712:557-570 (1982). The test assesses the ability of a test compound to inhibit the acylation of cholesterol by oleic acid by measuring the amount of radiolabeled cholesterol oleate formed from radiolabeled oleic acid in a tissue preparation containing rabbit intestinal microsomes.
# The data appear in Table 1 where they are expressed in IC₅₀ values; i.e., the concentration of test compound required to inhibit the activity of the enzyme by 50%.
smiles,measurement,value
"CCCCCCCCCCCCOS(=O)(=O)NC(=O)Sc1c(C(C)C)cccc1C(C)C [Example 30, S-[2,6-bis(1-methylethyl)phenyl][(dodecyloxy)sulfonyl]carbamothioate]",IC50,48 µM
